The list shows a part of the results.

Chains of the proteins cited; added tags and fusions are not shown. Lines headed by an entry give the natural chain unless they say otherwise; changes in a name come on top.
UniProt P30414: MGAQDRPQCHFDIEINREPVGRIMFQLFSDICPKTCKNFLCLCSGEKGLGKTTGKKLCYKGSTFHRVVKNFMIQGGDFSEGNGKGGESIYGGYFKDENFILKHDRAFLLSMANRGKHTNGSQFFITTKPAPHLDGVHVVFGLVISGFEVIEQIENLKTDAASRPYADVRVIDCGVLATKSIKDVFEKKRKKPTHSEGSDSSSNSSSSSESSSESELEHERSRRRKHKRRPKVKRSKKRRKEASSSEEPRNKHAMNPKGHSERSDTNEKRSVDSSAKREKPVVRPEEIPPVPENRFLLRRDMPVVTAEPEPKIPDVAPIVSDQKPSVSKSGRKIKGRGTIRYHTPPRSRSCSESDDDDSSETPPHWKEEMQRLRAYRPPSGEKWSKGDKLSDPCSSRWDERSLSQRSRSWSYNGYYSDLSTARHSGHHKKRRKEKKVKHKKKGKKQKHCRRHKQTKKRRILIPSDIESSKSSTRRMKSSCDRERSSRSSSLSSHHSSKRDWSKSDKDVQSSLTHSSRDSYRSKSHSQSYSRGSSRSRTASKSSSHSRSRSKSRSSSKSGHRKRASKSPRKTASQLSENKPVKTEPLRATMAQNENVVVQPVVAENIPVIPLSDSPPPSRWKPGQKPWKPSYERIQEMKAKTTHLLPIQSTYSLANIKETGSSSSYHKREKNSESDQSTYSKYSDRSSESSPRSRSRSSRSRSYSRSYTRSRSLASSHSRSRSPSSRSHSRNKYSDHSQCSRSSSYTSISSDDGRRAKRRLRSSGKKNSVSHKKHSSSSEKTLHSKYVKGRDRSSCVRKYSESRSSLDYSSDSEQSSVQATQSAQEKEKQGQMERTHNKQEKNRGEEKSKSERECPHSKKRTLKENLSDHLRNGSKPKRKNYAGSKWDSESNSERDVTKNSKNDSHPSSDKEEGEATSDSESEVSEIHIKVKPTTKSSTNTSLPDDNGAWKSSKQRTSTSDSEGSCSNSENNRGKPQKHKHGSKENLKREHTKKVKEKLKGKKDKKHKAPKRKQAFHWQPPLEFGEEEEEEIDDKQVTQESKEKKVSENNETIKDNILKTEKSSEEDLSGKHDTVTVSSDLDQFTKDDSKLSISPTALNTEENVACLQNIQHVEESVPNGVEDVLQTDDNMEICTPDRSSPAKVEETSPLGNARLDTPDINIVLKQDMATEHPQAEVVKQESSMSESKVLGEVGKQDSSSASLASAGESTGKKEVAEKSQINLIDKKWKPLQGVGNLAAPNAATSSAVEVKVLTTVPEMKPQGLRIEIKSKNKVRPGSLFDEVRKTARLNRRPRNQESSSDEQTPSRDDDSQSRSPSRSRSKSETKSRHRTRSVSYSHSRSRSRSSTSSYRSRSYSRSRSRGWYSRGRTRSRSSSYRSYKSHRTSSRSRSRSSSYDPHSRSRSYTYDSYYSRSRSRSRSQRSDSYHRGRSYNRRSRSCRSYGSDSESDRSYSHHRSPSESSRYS
UniProt Q92686, whole entry, looked up: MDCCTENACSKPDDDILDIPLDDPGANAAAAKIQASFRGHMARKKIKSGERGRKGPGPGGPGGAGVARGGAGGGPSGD
UniProt Q8IXM6: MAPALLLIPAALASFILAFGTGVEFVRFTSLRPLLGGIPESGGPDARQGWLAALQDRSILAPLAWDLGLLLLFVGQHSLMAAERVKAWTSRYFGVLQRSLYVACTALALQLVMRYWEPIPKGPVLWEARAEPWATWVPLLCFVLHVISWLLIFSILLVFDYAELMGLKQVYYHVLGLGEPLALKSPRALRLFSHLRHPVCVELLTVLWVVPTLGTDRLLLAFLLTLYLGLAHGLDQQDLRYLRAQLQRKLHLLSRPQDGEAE
UniProt Q9NPE3: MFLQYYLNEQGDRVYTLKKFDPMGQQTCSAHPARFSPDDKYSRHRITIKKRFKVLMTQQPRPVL
UniProt Q5SY16: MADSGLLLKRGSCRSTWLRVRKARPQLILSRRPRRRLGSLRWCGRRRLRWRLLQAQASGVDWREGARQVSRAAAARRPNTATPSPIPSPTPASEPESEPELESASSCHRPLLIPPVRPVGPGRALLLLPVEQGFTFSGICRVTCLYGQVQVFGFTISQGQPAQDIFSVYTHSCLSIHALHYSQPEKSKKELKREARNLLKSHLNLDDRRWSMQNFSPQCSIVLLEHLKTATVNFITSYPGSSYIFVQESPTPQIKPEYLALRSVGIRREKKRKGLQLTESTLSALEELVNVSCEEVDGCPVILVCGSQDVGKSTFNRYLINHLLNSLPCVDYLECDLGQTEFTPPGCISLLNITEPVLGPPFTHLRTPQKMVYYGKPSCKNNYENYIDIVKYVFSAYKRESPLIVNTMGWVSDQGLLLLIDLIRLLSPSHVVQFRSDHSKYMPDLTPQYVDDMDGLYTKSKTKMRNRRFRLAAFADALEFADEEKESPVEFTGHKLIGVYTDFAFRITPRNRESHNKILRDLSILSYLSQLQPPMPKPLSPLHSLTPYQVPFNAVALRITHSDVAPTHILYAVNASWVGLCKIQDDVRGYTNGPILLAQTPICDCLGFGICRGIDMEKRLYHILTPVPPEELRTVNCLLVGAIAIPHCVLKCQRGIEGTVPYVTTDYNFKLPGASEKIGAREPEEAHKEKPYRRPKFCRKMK
UniProt Q9NYR9: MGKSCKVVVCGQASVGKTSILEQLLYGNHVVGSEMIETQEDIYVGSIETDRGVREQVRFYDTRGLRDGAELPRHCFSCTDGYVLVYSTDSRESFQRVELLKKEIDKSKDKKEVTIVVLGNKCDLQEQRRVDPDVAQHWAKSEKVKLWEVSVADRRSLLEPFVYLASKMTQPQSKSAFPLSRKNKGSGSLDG
UniProt Q04721: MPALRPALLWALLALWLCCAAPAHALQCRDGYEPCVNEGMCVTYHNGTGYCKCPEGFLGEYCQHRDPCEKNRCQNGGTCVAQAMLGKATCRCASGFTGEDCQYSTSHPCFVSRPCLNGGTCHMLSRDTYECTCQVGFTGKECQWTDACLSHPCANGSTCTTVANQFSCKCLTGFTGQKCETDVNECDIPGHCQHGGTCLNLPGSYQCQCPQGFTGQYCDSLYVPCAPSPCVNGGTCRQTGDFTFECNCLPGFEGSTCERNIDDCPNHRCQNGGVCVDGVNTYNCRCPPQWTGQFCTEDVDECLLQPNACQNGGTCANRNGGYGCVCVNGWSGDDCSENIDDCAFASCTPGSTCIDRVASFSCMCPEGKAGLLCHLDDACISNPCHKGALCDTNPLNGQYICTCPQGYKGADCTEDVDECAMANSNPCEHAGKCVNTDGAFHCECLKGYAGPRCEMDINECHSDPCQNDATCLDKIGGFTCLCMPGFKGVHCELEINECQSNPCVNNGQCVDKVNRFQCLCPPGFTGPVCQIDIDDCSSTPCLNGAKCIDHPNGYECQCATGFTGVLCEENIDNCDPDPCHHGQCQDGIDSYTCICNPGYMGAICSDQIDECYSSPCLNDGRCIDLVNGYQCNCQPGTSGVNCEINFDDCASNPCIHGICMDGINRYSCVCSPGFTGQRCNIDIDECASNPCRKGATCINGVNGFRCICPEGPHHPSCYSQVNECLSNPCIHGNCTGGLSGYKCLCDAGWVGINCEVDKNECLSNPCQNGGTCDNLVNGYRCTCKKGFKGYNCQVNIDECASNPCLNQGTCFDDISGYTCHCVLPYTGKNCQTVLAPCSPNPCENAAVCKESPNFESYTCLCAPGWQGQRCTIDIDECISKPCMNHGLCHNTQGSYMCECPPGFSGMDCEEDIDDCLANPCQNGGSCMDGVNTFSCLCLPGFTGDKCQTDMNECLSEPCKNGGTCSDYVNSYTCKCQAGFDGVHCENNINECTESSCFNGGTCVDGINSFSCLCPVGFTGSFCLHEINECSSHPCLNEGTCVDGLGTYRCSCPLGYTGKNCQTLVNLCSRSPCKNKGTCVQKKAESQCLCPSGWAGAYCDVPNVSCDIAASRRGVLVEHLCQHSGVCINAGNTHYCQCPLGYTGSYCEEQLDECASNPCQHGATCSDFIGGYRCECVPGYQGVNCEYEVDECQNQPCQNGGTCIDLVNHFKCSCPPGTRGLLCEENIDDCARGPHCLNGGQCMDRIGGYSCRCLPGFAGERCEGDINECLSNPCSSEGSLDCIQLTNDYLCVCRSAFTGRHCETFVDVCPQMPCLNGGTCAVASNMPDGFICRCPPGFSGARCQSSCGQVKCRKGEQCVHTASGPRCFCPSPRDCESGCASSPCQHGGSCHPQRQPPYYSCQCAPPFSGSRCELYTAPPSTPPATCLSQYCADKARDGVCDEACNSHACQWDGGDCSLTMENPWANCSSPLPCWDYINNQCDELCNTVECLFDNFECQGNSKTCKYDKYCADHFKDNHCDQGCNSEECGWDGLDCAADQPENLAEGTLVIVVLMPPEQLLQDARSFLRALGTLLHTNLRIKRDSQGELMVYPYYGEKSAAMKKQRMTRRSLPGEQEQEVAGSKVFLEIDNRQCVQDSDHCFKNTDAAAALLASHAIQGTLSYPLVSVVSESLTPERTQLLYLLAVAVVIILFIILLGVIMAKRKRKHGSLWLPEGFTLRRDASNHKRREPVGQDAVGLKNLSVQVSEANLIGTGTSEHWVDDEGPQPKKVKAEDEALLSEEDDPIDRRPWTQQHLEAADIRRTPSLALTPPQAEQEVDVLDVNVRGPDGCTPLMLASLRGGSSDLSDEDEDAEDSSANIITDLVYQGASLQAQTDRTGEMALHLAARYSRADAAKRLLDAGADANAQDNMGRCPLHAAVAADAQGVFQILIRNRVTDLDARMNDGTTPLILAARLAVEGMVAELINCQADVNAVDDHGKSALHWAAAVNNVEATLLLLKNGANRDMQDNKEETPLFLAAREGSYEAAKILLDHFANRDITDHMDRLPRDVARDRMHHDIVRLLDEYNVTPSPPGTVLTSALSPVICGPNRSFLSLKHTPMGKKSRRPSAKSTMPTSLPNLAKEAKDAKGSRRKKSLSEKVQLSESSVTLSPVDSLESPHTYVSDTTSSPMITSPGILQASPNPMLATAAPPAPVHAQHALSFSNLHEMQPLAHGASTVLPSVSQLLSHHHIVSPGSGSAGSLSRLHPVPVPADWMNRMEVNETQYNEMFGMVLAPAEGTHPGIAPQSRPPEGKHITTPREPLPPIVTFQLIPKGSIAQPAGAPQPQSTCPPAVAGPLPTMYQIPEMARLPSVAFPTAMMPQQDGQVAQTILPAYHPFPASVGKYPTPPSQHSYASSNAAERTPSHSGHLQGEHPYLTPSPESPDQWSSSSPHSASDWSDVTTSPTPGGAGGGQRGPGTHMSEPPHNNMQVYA
UniProt Q14978: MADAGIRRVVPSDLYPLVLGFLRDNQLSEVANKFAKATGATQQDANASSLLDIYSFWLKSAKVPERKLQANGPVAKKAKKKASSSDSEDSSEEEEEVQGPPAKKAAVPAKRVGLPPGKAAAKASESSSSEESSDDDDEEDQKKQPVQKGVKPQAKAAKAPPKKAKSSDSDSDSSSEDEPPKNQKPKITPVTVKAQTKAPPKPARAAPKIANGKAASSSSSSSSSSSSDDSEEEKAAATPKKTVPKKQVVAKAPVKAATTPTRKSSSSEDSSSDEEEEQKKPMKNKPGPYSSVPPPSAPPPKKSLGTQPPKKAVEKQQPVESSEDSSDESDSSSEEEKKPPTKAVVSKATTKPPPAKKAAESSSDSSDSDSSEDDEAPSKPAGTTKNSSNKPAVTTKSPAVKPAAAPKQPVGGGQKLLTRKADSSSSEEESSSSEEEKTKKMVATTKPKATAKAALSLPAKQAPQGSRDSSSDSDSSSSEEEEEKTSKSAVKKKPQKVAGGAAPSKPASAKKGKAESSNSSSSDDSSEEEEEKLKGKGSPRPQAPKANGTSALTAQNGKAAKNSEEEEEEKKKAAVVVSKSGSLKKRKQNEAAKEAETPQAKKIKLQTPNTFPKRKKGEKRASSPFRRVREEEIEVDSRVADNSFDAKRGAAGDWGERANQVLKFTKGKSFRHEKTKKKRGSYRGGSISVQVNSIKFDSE
UniProt P13056: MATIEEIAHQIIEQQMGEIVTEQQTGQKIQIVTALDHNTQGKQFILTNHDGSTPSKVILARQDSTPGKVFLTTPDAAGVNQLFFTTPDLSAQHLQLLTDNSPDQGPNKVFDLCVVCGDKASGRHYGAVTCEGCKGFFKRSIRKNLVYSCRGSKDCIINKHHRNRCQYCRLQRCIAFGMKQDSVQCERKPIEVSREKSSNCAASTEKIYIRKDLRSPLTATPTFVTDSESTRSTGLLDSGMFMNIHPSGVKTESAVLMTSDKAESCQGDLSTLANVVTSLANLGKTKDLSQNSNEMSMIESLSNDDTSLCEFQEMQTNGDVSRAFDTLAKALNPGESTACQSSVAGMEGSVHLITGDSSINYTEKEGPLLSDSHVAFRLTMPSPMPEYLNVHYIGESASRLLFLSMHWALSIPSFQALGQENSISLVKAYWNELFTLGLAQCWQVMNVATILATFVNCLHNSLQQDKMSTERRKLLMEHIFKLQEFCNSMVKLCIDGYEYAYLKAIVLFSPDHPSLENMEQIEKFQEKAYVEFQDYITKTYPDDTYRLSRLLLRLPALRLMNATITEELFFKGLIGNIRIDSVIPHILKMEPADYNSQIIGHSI

Compound in the first assay: CCN(CC)Cc1ccc2cc(COC(=O)Nc3ccc(C(=O)NO)cc3)ccc2c1 [givinostat]
Nature of the assay: log2 fold change, soluble protein after heating vs DMSO (PISA); higher = thermal stabilisation; K562 cells, 10 uM, 30 min; active = over 0.2 and 3.5 SD of the protein, either way, in both replicates (recomputed). In a few lines:
(§1)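 For each measurement, 10 μM compound was applied for 30 min to K562 cells at 2×10^6 cells/mL. Aliquots were heated for 3 min across 48°C-58°C, pooled, and extracted in PBS with 0.5% NP-40 at 4°C; the supernatant after 21,000xg for 90 min was soluble protein. This was quantified by TMTpro 16plex LC-MS/MS with channel sums equalised, and thermal stability was reported relative to control samples from duplicates, on a log2 fold-change scale.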
Turning to NFE2L1 (UniProt Q14494), the log2 fold change is inactive: -0.015.

As to NKTR (UniProt P30414), the log2 fold change was inactive: 0.532.

As to NRGN (UniProt Q92686), the log2 fold change is inactive: -0.034.

Regarding NR3C1 isoform 3 (UniProt P04150), the log2 fold change was inactive: 0.075.

Take NIPBL (UniProt Q6KC79): the log2 fold change is inactive: 0.081.

As for NRM (UniProt Q8IXM6), the log2 fold change is inactive: -0.015.

In the case of NOP10 (UniProt Q9NPE3), the log2 fold change is inactive: 0.029.

As to NKAP (UniProt Q8N5F7), the log2 fold change was inactive: 0.044.

With NRSN2 (UniProt Q9GZP1), the log2 fold change is inactive: -0.007.

Take NEU3 isoform 2 (UniProt Q9UQ49): the log2 fold change was inactive: 0.189.

Regarding NOMO3 (UniProt P69849), the log2 fold change is inactive: 0.024.

Consider NRBP2 (UniProt Q9NSY0), for which the log2 fold change was inactive: 0.038.

With NMNAT3 (UniProt Q96T66), the log2 fold change was inactive: 0.451.

For NOL4L (UniProt Q96MY1), the log2 fold change is inactive: 0.073.

Consider NMRK1 (UniProt Q9NWW6), for which the log2 fold change is inactive: 0.138.

Regarding NOS1AP (UniProt O75052), the log2 fold change is inactive: -0.117.

Regarding NOL9 (UniProt Q5SY16), the log2 fold change is inactive: 0.02.

Consider NFKBIA (UniProt P25963), for which the log2 fold change is inactive: 0.038.

With NKIRAS2 (UniProt Q9NYR9), the log2 fold change is inactive: -0.135.

Regarding NGRN (UniProt Q9NPE2), the log2 fold change was inactive: -0.003.

With NSD3 (UniProt Q9BZ95), the log2 fold change is inactive: -0.08.

Take NPRL3 (UniProt Q12980): the log2 fold change is inactive: -0.189.

As for NOTCH2 (UniProt Q04721), the log2 fold change is inactive: -0.061.

For the target NSD1 (UniProt Q96L73), the log2 fold change was inactive: -0.045.

In the case of NOLC1 isoform 3 (UniProt Q14978), the log2 fold change was inactive: -0.02.

Take NME4 (UniProt O00746): the log2 fold change was inactive: -0.063.

Consider NMU (UniProt P48645), for which the log2 fold change is inactive: 0.001.

NELFCD (UniProt Q8IXH7): the log2 fold change is inactive: 0.167.

Compound in the next assay: CCN(CCCOc1ccc2c(Nc3cc(CC(=O)Nc4cccc(F)c4)[nH]n3)ncnc2c1)CCOP(=O)(O)O [barasertib]
The assay is described as above. In a few lines: as §1
NKTR (UniProt P30414): the log2 fold change was inactive: 0.042.

Regarding NSA2 (UniProt O95478), the log2 fold change is inactive: 0.104.

Take NR2C1 (UniProt P13056): the log2 fold change was inactive: 0.096.

Consider NRGN (UniProt Q92686), for which the log2 fold change was inactive: -0.14.

As for NIPBL (UniProt Q6KC79), the log2 fold change is inactive: 0.034.

Take NRM (UniProt Q8IXM6): the log2 fold change was inactive: -0.005.

Take NOP10 (UniProt Q9NPE3): the log2 fold change is inactive: -0.062.

With NKAP (UniProt Q8N5F7), the log2 fold change was inactive: -0.165.

In the case of NOMO3 (UniProt P69849), the log2 fold change is inactive: 0.028.

In the case of NOC3L (UniProt Q8WTT2), the log2 fold change was inactive: 0.

NMNAT3 (UniProt Q96T66): the log2 fold change is inactive: 0.148.

Take NIPSNAP2 (UniProt C9J7B1): the log2 fold change was inactive: 0.01.

Regarding NOS1AP (UniProt O75052), the log2 fold change is inactive: 0.046.

Turning to NGRN (UniProt Q9NPE2), the log2 fold change is inactive: 0.016.

As for NSD3 (UniProt Q9BZ95), the log2 fold change is inactive: -0.081.

As for NOTCH2 (UniProt Q04721), the log2 fold change was inactive: -0.014.

Turning to NSD1 (UniProt Q96L73), the log2 fold change was inactive: 0.044.

On to NFKB2 (UniProt Q00653), for which the log2 fold change was inactive: 0.059.

With NMU (UniProt P48645), the log2 fold change was inactive: 0.002.

For NELFCD (UniProt Q8IXH7), the log2 fold change is inactive: 0.

Source of the values: the supplement of paper PMC10849652.
